This is an account of results in US20090304663A1, “USE OF GSK-3 INHIBITORS FOR THE TREATMENT OF PROSTATE CANCER” (IMPERIAL INNOVATIONS LIMITED, priority 2004, published 2009).

Amino acid sequences for entries named in this document (tags omitted).
UniProt P49841: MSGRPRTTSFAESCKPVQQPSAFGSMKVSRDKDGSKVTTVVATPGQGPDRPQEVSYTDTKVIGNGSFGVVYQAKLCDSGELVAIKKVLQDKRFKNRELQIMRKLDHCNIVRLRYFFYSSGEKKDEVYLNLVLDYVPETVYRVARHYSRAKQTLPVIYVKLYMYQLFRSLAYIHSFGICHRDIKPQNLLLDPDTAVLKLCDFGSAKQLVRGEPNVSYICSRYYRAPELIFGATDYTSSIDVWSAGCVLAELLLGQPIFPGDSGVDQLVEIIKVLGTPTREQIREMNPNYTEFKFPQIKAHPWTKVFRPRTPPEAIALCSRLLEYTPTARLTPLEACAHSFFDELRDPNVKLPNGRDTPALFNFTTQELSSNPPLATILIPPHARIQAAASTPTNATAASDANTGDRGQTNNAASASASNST
UniProt P10275: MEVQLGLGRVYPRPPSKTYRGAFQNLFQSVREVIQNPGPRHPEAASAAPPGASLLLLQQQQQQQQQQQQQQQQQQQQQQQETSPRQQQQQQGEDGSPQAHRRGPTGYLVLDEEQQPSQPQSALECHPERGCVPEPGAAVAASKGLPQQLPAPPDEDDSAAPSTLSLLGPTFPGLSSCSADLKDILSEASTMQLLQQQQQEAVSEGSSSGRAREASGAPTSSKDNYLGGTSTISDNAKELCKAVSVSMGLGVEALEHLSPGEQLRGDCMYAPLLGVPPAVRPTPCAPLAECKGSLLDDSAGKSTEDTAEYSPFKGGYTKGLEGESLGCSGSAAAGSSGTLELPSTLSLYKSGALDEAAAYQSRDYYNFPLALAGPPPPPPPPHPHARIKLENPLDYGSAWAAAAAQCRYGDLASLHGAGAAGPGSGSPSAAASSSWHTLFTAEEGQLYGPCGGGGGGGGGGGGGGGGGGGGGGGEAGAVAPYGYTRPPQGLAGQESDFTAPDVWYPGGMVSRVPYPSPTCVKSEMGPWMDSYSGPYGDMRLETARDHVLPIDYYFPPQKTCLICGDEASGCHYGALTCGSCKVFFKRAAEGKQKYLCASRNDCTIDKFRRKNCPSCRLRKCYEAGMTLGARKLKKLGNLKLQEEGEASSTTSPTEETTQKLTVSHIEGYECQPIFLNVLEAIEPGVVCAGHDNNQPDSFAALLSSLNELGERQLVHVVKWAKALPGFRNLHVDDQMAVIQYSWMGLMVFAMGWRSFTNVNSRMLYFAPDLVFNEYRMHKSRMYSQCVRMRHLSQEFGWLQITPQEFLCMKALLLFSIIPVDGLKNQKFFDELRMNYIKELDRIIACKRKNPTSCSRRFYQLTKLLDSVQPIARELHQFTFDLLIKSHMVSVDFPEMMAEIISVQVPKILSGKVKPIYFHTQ

Results are given in words; binding and its absence hold for the method and conditions named. In cells and extracts the contact can be indirect. Some binding calls cover weakened binding; strength is not graded here.

Assay [1] deals with myc epitope-tagged GSK-3 (UniProt P49841). Description: co-immunoprecipitation with 9E10 (myc-GSK-3) from transfected COS7 cell extracts, blot with anti-AR.
Assay [2] shares this target. Description: co-immunoprecipitation from transfected COS7 cell extracts.
The target in assay [3] is androgen receptor (AR) (UniProt P10275). Description: co-immunoprecipitation with polyclonal anti-AR from transfected COS7 cell extracts, blot with 9E10.

As to “androgen receptor (AR) (from UniProt P10275 1-920)”, the binding entry in assay [1] and in assay [2] was “binds” throughout.

Turning to “myc epitope-tagged GSK-3 (from UniProt P49841 1-420) (enzyme)”, in assay [3], the binding entry is “binds”.
